Article PMC12786336
Results are given in words; binding and its absence hold for the method and conditions named. Binding seen in cells or lysates may run through a third protein. Some binding calls cover weakened binding; strength is not graded here.

Amino acid sequences for entries named in this document (tags omitted).
UniProt Q62093: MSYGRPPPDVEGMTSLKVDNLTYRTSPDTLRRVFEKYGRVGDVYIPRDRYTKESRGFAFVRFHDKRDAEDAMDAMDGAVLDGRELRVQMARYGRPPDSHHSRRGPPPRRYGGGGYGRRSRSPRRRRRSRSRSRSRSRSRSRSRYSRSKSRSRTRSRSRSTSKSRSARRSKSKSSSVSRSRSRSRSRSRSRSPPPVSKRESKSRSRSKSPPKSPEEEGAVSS

Biological target: T1, N-acetyltransferase 10 (NAT10) (UniProt Q8K224)
T1 sequence: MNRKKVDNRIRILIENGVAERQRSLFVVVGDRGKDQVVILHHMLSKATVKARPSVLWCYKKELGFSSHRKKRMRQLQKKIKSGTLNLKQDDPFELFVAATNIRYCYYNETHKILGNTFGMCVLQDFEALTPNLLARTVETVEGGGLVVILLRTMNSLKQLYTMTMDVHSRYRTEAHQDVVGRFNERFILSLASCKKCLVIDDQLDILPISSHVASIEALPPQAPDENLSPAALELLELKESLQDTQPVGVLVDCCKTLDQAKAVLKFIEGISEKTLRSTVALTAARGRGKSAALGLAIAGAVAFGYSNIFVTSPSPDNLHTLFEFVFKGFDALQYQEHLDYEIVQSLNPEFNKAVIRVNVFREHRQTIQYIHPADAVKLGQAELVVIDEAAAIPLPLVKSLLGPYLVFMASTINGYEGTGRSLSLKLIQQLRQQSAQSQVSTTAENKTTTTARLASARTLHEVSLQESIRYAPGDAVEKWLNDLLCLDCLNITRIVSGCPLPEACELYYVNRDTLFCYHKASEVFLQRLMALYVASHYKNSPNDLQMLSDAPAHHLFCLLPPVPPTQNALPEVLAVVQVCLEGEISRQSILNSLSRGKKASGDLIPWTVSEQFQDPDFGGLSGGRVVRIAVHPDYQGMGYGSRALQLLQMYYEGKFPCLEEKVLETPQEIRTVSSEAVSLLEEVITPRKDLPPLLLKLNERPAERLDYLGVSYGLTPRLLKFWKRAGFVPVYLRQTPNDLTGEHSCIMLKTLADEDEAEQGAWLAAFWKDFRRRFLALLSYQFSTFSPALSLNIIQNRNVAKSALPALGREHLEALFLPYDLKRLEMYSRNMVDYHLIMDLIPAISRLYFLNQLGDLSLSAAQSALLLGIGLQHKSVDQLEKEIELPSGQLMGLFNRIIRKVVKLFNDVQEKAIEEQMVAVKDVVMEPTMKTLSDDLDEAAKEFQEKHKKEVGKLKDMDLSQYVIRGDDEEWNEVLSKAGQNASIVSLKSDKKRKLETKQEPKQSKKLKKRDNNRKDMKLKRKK
Experiment: co-IP; cells lysed in NP-40 buffer; lysate at 1 mg/mL incubated overnight at 4 °C with anti-NAT10, anti-SRSF2 or IgG control antibody (10 µg); Protein A/G agarose beads 4 h at 4 °C; three washes with TBS; Western blot

Substance: SRSF2 (from UniProt Q62093 1-221)
- binding: binds
